Source: US4851414A, “Anti-dementia agent” (Kyowa Hakko Kagyo Co., Ltd., priority 1987, dated 1989)
At least one read-out could not be matched to a standard name with certainty.

Assay: Activity on Electroconvulsive Shock-induced Amnesia (step-through passive avoidance, light-and-dark box)
Format: in vivo, mouse (dd strain, male)
Conditions: oral
Experimental: The antiamnestic activity was measured by using the light-and-dark box method. Symbols of the test compounds correspond to said compounds (Table 1).
As the test animals, 14 to 15 dd strain male mice (body weight: 23-28 g) were used for each group. As the experimental device, a step-through type passive avoidance training box composed of a light room and a dark room (light room: 130×90×90 mm; dark room 180×90×90 mm) was used.
In the acquisition trial where learning takes place, mice put in the light room move to the dark room. Each time the mice entered the dark room, electric stimulation of 0.25 mA was given to four limbs of each mouse for 2 seconds from grids on the floor.
Amnesia-inducing treatment was performed by electroconvulsive shock (2,000 V, 25 mA, 0.2 seconds) immediately after completion of the acquisition trial. After 24 hours, the test trial was conducted to measure the length of time before the mice entered the dark room. This time period, termed the reaction latent time, was recorded. A reaction latent time longer than 600 seconds was recorded as 600 seconds.
A test compound was suspended in 0.3% sodium carboxymethyl cellulose (hereinafter referred to as "CMC"). That suspension and a control of 0.3% CMC without any test compound were respectively administered to the mice 60 minutes prior to each test trial.
The effect was evaluated by Student-t test to determine whether there was a significant difference in reaction latent time between the amnesia control group and the group administered with the test compound in the passive avoidance test trial.

Row | Compound | Test Trial Mean Reaction Latent Time (10 mg/kg) | Test Trial Mean Reaction Latent Time (20 mg/kg) | Test Trial Mean Reaction Latent Time (40 mg/kg) | Test Trial Mean Reaction Latent Time (80 mg/kg)
1 | CNCCCN1c2ccccc2CCc2ccccc21 [Desipramine, desipramine] | 163.2 ± 51.7 s | 111.2 ± 26.1 s | 115.4 ± 38.8 s | 80.4 ± 16.1 s
2 | CN(C)CCCN1c2ccccc2CCc2ccccc21 [Imipramine, imipramine] |  | 263.4 ± 59.1 s | 180.0 ± 47.9 s | 174.9 ± 44.5 s
